Laboratory results published in PubChem BioAssay AID602296 (Broad Institute, 2012).
In all, about 2,000 compounds went through this assay and about 190 (9.5%) were called active. Not shown: some 14% with an inconclusive outcome.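 The calls were made as follows: active = fitted activation curve crossing 40% at a concentration no higher than the sample's top valid tested dose; inconclusive = flat fitted curve at 30% to 70% activation, or poor curve fit; inactive = signal decrease, flat curve within 30%, or the rest.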 Most of the strongest results are missing from this list.

Test: HSF-1 reporter activators over prolonged exposure, confirmation, cell-based, mouse, luciferase, cherry-pick, dose (AID 602296);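 also: test compounds applied by themselves with no MG132 co-treatment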
Details: NIH3T3-HGL HSF-1 response element luciferase, 48 h; at 26 µM (top of the series) unless noted

SMILES | activation
Cc1cccn2c(=O)c3c(nc12)N1CCC(Cc2ccccc2)CC1C1(C3)C(=O)N(C)C(=O)N(C)C1=O (stereo not drawn) | inactive: 2.68%
Cc1oc(-c2ccccc2Cl)nc1CN1C(=O)CN=C(c2ccccc2)c2ccccc21 | inactive: -57.7%
CSc1ccc(C(=O)C2CCCN(Cc3cccnc3)C2)cc1 (stereo not drawn) | inactive: -0.796%
CN1CC(C(=O)c2ccc(F)cc2)C(c2c(F)cccc2Cl)C1 (stereo not drawn) | inactive: 2.93%
CC(=O)c1ccccc1NC(=O)C1C2CCC(O2)C1C(=O)O (stereo not drawn) | inactive: -23.3%
COc1ccc(N2C(=O)NC(=O)/C(=C/c3ccc([N+](=O)[O-])s3)C2=O)cc1 | inactive: 19.3%
Cc1ccsc1C(=O)C1CCCN(Cc2ccccc2O)C1 (stereo not drawn) | inactive: -13.8%
COc1cccc(C2C([N+](=O)[O-])=C(N)Oc3c2c(=O)oc2ccccc32)c1 (stereo not drawn) | inactive: 6.71%
Cn1c(O)c(C2=NNC(c3ccc(Cl)cc3)C2)c(=O)n(C)c1=O (stereo not drawn) | inactive: -15.9%
CCOc1cccc(C2NCc3ccccc3-n3cccc32)c1O (stereo not drawn) | inactive: -5.06%
C=CCN1CCc2cccc3c2[C@H]1Cc1ccc(O)c(O)c1-3 | inactive: -45.2%
CCCc1[nH]nc2c1C1(C(=O)N(Cc3ccccc3)c3ccccc31)C(C(=O)OC)=C(N)O2 (stereo not drawn) | inactive: -35.4%
COc1ccccc1N1CCN(Cc2cccc(OC)c2O)CC1 | inactive: -9.22%
COc1ccc(SCC2CN(C)CCC2c2ccc(F)cc2)cc1 (stereo not drawn) | inactive: -48.2%
COc1cc(/C=C/[N+](=O)[O-])ccc1O | inactive: -12.9% [at 6 µM]
O=c1[nH]c(=O)n(-c2ccccc2F)c(O)c1C=NCCC1=CCCCC1 | inactive: -0.09%
CC(Cc1ccccc1)NCC(=O)Nc1cc(N(C)C)nc2ccccc12 (stereo not drawn) | inactive: -30.9%

SMILES | activation
COc1ccc(C(=O)C2CCCN(Cc3ccc(C)s3)C2)c(OC)c1 (stereo not drawn) | inactive: -26.9%
C/C1=C\[C@@H](C)C/C=C/[C@H]2[C@@H]3O[C@]3(C)[C@@H](C)[C@H]3[C@H](Cc4c[nH]c5ccccc45)NC(=O)[C@]32C(=O)/C=C/C(=O)[C@@H]1O | inactive: -103%
CCC(=NCc1ccco1)c1c(O)n(C2CCCCC2)c(=O)[nH]c1=O | inactive: -18.8%
COC(=O)N1C(c2ccccc2)C1c1ccccc1 (stereo not drawn) | inactive: 5.74%
COc1cc(O)cc2c1C(=O)OC(C)CCCC(=O)CCC/C=C\2 (stereo not drawn) | inactive: -21.9%
COc1ccc(N=Cc2c(O)n(Cc3ccccc3)c(=S)[nH]c2=O)c(OC)c1 | inactive: 3.27%
CCOc1ccc(CN(CCCl)CCCl)cc1C(=O)OC | inactive: 5.88%
Cc1cc(=O)[nH]c(SCc2nc3ccccc3c(=O)n2-c2ccccc2C)n1 | inactive: -1.95%
CN(C)CCc1nc2ccccc2c(=O)n1-c1ccccc1 | inactive: 11.7%
C=CCNC(=O)c1c(N)n(Cc2ccco2)c2nc3ccccc3nc12 | inactive: -21.2%
O=C(CF)NC(NC(=S)Nc1ccccc1O)C(Cl)(Cl)Cl (stereo not drawn) | inactive: -11.6%
CCCCn1c(C)c(C(=O)OCC)c2c(CN3CCOCC3)c(O)ccc21 | inactive: -16.6%
COc1ccc(CCNCc2ccc(Br)cc2)cc1OC | inactive: -20.7%
O=c1cccc2n1CC1CC2CN(c2nc(N3CCCCC3)nc(N3CCCCC3)n2)C1 (stereo not drawn) | inactive: -3.61%
COc1ccc2ccc(O)c(CN3CC=C(c4ccccc4)CC3)c2c1 | inactive: -7.55%
Fc1cccc(F)c1CN1CCN(c2ccc(Cl)cc2)CC1 | inactive: 5.26%

Single values from the results shown.
activation with COc1ccccc1N1CCN(Cc2cccc(OC)c2O)CC1 reads inactive: -9.22%
activation with C=CCNC(=O)c1c(N)n(Cc2ccco2)c2nc3ccccc3nc12 reads inactive: -21.2%
